Assay results taken from PubChem BioAssay AID493014 (National Center for Advancing Translational Sciences (NCATS), 2011).
This is one part of the list. These are further read-outs of the screen, such as a control signal, another cell line or another target. No call is given for them. Compounds called inactive in the main read-out are mostly missing here. The note in brackets gives the kind of curve behind each potency; many fits are weak.

Experiment: qHTS Assay to Find Inhibitors of Chronic Active B-Cell Receptor Signaling
Details: ABC-DLBCL IkBa-CBG/CBR reporter, luminescence ratio (green luciferase fused to IkBa over red control in TMD8 lymphoma cells), 4 h
Outline: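 Compounds up to 46 uM were incubated four hours with TMD8 cells whose green CBG68 luciferase is fused to IkappaBalpha; red CBR luminescence normalised the signal, and concentration-effect curves were fitted to fusion, red and ratio data.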

[1] = measured here: CBR red luminescence, cell number
[2] = measured here: IkBa-CBG green luminescence

SMILES	AC50 [1]	AC50 [2]
CCN(CC)S(=O)(=O)c1cccc(C(=O)Nc2nc3cc4c(cc3s2)OCCO4)c1	14.1 µM [falling, partial curve, poor fit]	
CCc1cc2cc(C)cc(C)c2nc1SCC(=O)N1CCN(C(=O)c2ccco2)CC1	11.2 µM [rising, partial curve, poor fit]	
O=C(O)c1cccc(S(=O)(=O)Nc2cc(Cl)ccc2Cl)c1	3.55 µM [rising, single point]	
O=S(=O)(NCCO)c1ccc2c(c1)Cc1cc(S(=O)(=O)NCCO)ccc1-2	35.5 µM [rising, partial curve, poor fit]	
Nc1nonc1-n1nnc(C(=O)N/N=C/c2ccccc2F)c1CN1CCc2ccccc21	1.58 µM [rising, partial curve, poor fit]	
O=C(NCC(c1ccco1)N1CCc2ccccc2C1)c1ccc(Cl)c([N+](=O)[O-])c1 (stereo unspecified)	29.1 µM [falling, single point]	
COc1cc(C(C(=O)NC(C)(C)C)N(C(=O)CNC(=O)c2cccs2)c2ccc(C(C)C)cc2)cc(OC)c1OC (stereo unspecified)	35.5 µM [rising, partial curve, poor fit]	
CC(=O)Nc1ccc(NC(=O)C/C(C)=N/NC(=O)C(=O)Nc2ccc(C)c(Cl)c2)cc1	3.16 µM [falling, single point]	
COc1ccc2c(CC(=O)N3CCc4ccccc43)coc2c1	1.84 µM [falling, full curve, poor fit]	
Cc1nc(N)sc1C(=O)OCC(C)C	35.5 µM [rising, single point]	
COC(=O)c1c(O)c2ccccc2[nH]c1=O	9.2 µM [falling, single point]	
CC(C)NC(=O)NC(=O)COC(=O)C1CCCN1C(=O)c1cccs1 (stereo unspecified)	0.58 µM [rising, full curve, poor fit]	
CC1CN(c2nc3ccccc3nc2C(C#N)C(=O)NCc2ccc3c(c2)OCO3)CC(C)O1 (stereo unspecified)	7.31 µM [rising, partial curve, poor fit]	
C[C@@H](NC(=O)[C@@H]1Cc2ccccc2CN1)C(=O)NC1CCCCC1	3.55 µM [falling, full curve]	
Cc1ccc(S(=O)(=O)NCCC(=O)NCCSc2ccc(Br)cc2)cc1	35.5 µM [rising, partial curve, poor fit]	
CSc1cccc(NC(=O)C2CCCN(S(=O)(=O)c3ccc(F)cc3)C2)c1 (stereo unspecified)	29.1 µM [falling, single point]	
COc1ccc(O[C@H]2C=C[C@@H](c3ccccc3)O[C@@H]2COC(=O)CCC(C)=NO[C@@H]2O[C@H](COC(C)=O)[C@@H](OC(C)=O)[C@H](OC(C)=O)[C@H]2OC(C)=O)cc1	5.17 µM [rising, partial curve, poor fit]	10.3 µM [falling, partial curve, poor fit]
O=C(c1cc(-c2ccc(F)cc2)on1)N1CCCCCC1	7.08 µM [falling, full curve]	
CSc1ncccc1C(=O)OCc1ccccc1F	5.62 µM [falling, single point]	5.62 µM [rising, single point]
COC(=O)/C=C/C(=O)Nc1cccc(C(F)(F)F)c1	2.59 µM [falling, full curve]	
O=C(Cn1nnc2c(cnn2-c2ccccc2)c1=O)N1CCN(c2ccccc2F)CC1	22.4 µM [falling, single point]	

Taken from above:
Under AC50 [1], `Nc1nonc1-n1nnc(C(=O)N/N=C/c2ccccc2F)c1CN1CCc2ccccc21` has the entry 1.58 µM [rising, partial curve, poor fit]
Under AC50 [1], `COC(=O)c1c(O)c2ccccc2[nH]c1=O` has the entry 9.2 µM [falling, single point]
Under AC50 [1], `O=C(O)c1cccc(S(=O)(=O)Nc2cc(Cl)ccc2Cl)c1` has the entry 3.55 µM [rising, single point]

Next part:

SMILES	AC50 [1]	AC50 [2]
O=C(NC(C(=O)N/N=C/c1cccnc1)c1n[nH]c(=O)c2ccccc12)c1ccccc1 (stereo unspecified)	11.2 µM [falling, partial curve, poor fit]	
O=C(Nc1nc2ccccc2[nH]1)c1cccc(Br)c1	2.51 µM [falling, full curve, poor fit]	
O=C(CCS(=O)(=O)c1ccccc1)Nc1nncs1	12.6 µM [falling, partial curve, poor fit]	
O=C(O)c1sccc1S(=O)(=O)N1CCN(c2ccc(C(F)(F)F)cn2)CC1	35.5 µM [rising, single point]	
Cc1ccc(NC(=S)Nc2ccccn2)cc1C	0.251 µM [rising, full curve, poor fit]	
CC(C)CN(CC(C)C)C(=S)Nc1ccc(Cl)cc1	3.98 µM [rising, full curve, poor fit]	
CCOc1ccccc1Nc1nnc(Cc2ccccc2Cl)c(=O)[nH]1	12.6 µM [falling, single point]	
O=c1c2ccccc2c(-c2ccc(Cl)cc2)nn1-c1ccccc1	16.4 µM [rising, single point]	
COc1ccc(C(=O)O/N=C(\N)c2ccccc2Cl)cc1OC	8.91 µM [falling, partial curve]	
COc1ccc(CNC(=O)c2sc(=S)n(-c3ccccc3)c2N)cc1	35.5 µM [rising, single point]	
CCCNC(=O)CC1Sc2ccccc2NC1=O (stereo unspecified)	6.51 µM [rising, partial curve, poor fit]	
Cc1ccccc1OC(C)c1nc(-c2ccccc2)no1 (stereo unspecified)	5.17 µM [rising, partial curve, poor fit]	
Cc1ccc(C)c2[nH]c(=O)c(CCNC(=O)Cc3cccs3)cc12	5.8 µM [rising, partial curve]	
CC(C)(NC(=O)NC(CO)c1ccccc1)c1cccc(C(C)(C)NC(=O)NC(CO)c2ccccc2)c1 (stereo unspecified)	2.06 µM [falling, full curve]	2.31 µM [rising, full curve, poor fit]
Cc1ccc(S(=O)(=O)N2CCCCC2)cc1NC(=O)c1ccc(Br)o1	0.231 µM [falling, full curve, poor fit]	
Cc1c(NC(=O)CSc2nc3ccc(Cl)cc3[nH]2)c(=O)n(-c2ccccc2)n1C	1.46 µM [falling, partial curve, poor fit]	
COc1ccc(S(=O)(=O)N2CCCC2)c(Cl)c1Cl	3.98 µM [rising, full curve, poor fit]	
CCOC(=O)C1CCCN(Cc2ccccc2F)C1 (stereo unspecified)	3.16 µM [rising, single point]	
CC1/C(=C\c2ccc(Cl)cc2)C(=O)C2CC1C2(C)C (stereo unspecified)	15.8 µM [rising, single point]	
CCn1c(C)nc2cc(-c3nc4n(n3)Cc3ccccc3-4)ccc21	10 µM [falling, partial curve, poor fit]	
CSc1ccc(-c2nc3cnccn3c2Nc2ccc3c(c2)OCO3)cc1	0.013 µM [falling, full curve, poor fit]	

SMILES	AC50 [1]	AC50 [2]
Cc1nc2cc(NC(=O)N3c4ccccc4CC3C)ccc2o1 (stereo unspecified)	29.1 µM [falling, single point]	
Cc1cc(=O)[nH]c(N/N=C/c2c(C)nn(-c3ccccc3)c2Cl)n1	35.5 µM [rising, single point]	
CN(C)S(=O)(=O)c1cc(C(=O)Nc2ccccc2C(=O)NC2CC2)ccc1Cl	7.31 µM [rising, partial curve]	
Cc1ccnc(NC(=O)c2sc3cc(Cl)ccc3c2Cl)c1	1.03 µM [falling, partial curve]	
COc1ccc(OCCOc2ccccc2[N+](=O)[O-])cc1	9.2 µM [rising, partial curve]	
Cc1ccc(C(=O)Nc2nc3c(s2)CCCC3)o1	14.6 µM [falling, partial curve]	
CCCCn1c(N)c(N(CCOC)C(=O)CCNC(=O)c2ccc(Br)cc2)c(=O)[nH]c1=O	0.092 µM [rising, full curve, poor fit]	
COc1ccc(-c2[nH]ncc2/C=N\NC(=O)c2cccs2)cc1OC	35.5 µM [falling, single point]	
CCCCCOC(=O)c1[nH]c2c(c1C)C(=O)CC(c1ccco1)C2 (stereo unspecified)	0.461 µM [rising, full curve]	0.58 µM [falling, full curve]
COc1ccccc1OCc1ccc(C(=O)Nc2cc(OC)c(OC)c(OC)c2)o1	22.4 µM [falling, single point]	
COC(=O)c1cccc(NC(=S)NCc2ccc(Cl)cc2)c1	9.2 µM [falling, partial curve]	
Nc1nonc1-n1nnc(C(=O)N/N=C/c2cccnc2)c1CSc1ccc(Cl)cc1	22.4 µM [falling, single point]	
C/C(=N\Nc1ccc([N+](=O)[O-])cc1)c1ccc(O)cc1	3.16 µM [rising, partial curve, poor fit]	
COc1ccc(C2CC(c3ccc(OC)cc3OC(C)=O)=NN2C(=O)c2ccccc2)cc1 (stereo unspecified)	35.5 µM [falling, single point]	
O=C(Nc1cccc(O)c1)c1ccc(NC(=O)c2cccs2)cc1	35.5 µM [falling, single point]	
CCOC(=O)c1c(CN(C)C)n(-c2ccccc2)c2cc(Br)c(O)cc12	0.447 µM [rising, full curve, poor fit]	
Cc1cc(C)c2c3c(sc2n1)C(c1cccc(F)c1)C(C#N)=C(N)O3 (stereo unspecified)	18.4 µM [falling, single point]	
Cc1ccc(NC(=O)c2ccccc2OCc2ccc([N+](=O)[O-])cc2)nc1	0.316 µM [rising, full curve, poor fit]	
COc1cc(C2C(C#N)=C(N)OC3=C2C(=O)CC(C)(C)C3)ccc1OC(=O)N1CCOCC1 (stereo unspecified)	29.1 µM [rising, single point]	
CCOc1cc(CNc2cccc3[nH]c(C)nc23)ccc1OC	12.6 µM [rising, single point]	
